Assay results published in the supplement of paper PMC6078165.

System: MDAMB231
Assay: relative JC-1 red fluorescence (viability) vs pre-drug, coculture with fibroblast (fraction); higher = more viable cancer cells
Experimental: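 JC-1 labelled TNBC cells cocultured 1:1 (1,500 cells each) with CellTrace Violet stained primary or stromal fibroblasts in 384-well plates in FluoroBrite medium, treated with one of 42 anticancer drugs at 0.1, 1, 10 or 100 uM. JC-1 red fluorescence (mitochondrial integrity in cancer cells only) was read by plate reader every 8 h for 72 h. Values are normalised to each well's pre-drug value. The stock of one drug was tenfold lower, so its dose labels may be too high.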

COc1cc([C@@H]2c3cc4c(cc3[C@@H](O[C@@H]3O[C@@H]5CO[C@@H](C)O[C@H]5[C@H](O)[C@H]3O)[C@H]3COC(=O)[C@H]23)OCO4)cc(OC)c1O [Etoposide]
relative JC-1 red fluorescence
Details | 8 h | 16 h | 24 h | 32 h | 40 h | 48 h | 56 h | 64 h | 72 h
10 µM, coculture fibroblast: C12385 | 0.7662 | 0.713 | 0.681 | 0.622 | 0.578 | 0.564 | 0.518 | 0.533 | 0.518
10 µM, coculture fibroblast: H6013 | 0.9 | 0.846 | 0.811 | 0.785 | 0.727 | 0.699 | 0.664 | 0.621 | 0.5775
10 µM, coculture fibroblast: H6019 | 0.748 | 0.695 | 0.676 | 0.657 | 0.621 | 0.617 | 0.576 | 0.588 | 0.564
10 µM, coculture fibroblast: H6076 | 0.8591 | 0.785 | 0.735 | 0.707 | 0.68 | 0.641 | 0.618 | 0.609 | 0.625
10 µM, coculture fibroblast: H6231 | 0.9724 | 0.912 | 0.857 | 0.801 | 0.745 | 0.696 | 0.654 | 0.634 | 0.604
10 µM, coculture fibroblast: HADF | 0.907 | 0.902 | 0.865 | 0.829 | 0.776 | 0.715 | 0.677 | 0.642 | 0.5763
10 µM, coculture fibroblast: HCFa | 0.893 | 0.844 | 0.819 | 0.79 | 0.741 | 0.685 | 0.642 | 0.61 | 0.555
10 µM, coculture fibroblast: HCPF | 0.913 | 0.808 | 0.737 | 0.697 | 0.644 | 0.602 | 0.554 | 0.53 | 0.505
10 µM, coculture fibroblast: HHSteC | 0.894 | 0.868 | 0.829 | 0.783 | 0.749 | 0.729 | 0.677 | 0.66 | 0.61
10 µM, coculture fibroblast: HMF | 0.895 | 0.832 | 0.772 | 0.724 | 0.6757 | 0.625 | 0.589 | 0.574 | 0.553
10 µM, coculture fibroblast: HPFa | 0.9224 | 0.886 | 0.8213 | 0.774 | 0.7489 | 0.702 | 0.641 | 0.606 | 0.554
10 µM, coculture fibroblast: HUF | 0.814 | 0.721 | 0.741 | 0.63 | 0.582 | 0.567 | 0.533 | 0.532 | 0.521
10 µM, coculture fibroblast: Hs5 | 0.846 | 0.7983 | 0.7591 | 0.7118 | 0.675 | 0.625 | 0.602 | 0.588 | 0.592
10 µM, coculture fibroblast: Hs27A | 0.9014 | 0.83 | 0.793 | 0.771 | 0.72 | 0.655 | 0.646 | 0.629 | 0.588
10 µM, coculture fibroblast: Hs343T | 0.858 | 0.766 | 0.693 | 0.654 | 0.6 | 0.547 | 0.501 | 0.487 | 0.467
10 µM, coculture fibroblast: WS1 | 0.729 | 0.68 | 0.622 | 0.6 | 0.55 | 0.521 | 0.474 | 0.472 | 0.45
100 µM, coculture fibroblast: C12385 | 0.756 | 0.764 | 0.67 | 0.7059 | 0.646 | 0.622 | 0.58 | 0.574 | 0.56
100 µM, coculture fibroblast: H6013 | 0.907 | 0.885 | 0.855 | 0.85 | 0.802 | 0.769 | 0.75 | 0.714 | 0.668
100 µM, coculture fibroblast: H6019 | 0.7578 | 0.723 | 0.733 | 0.746 | 0.722 | 0.728 | 0.7 | 0.728 | 0.719
100 µM, coculture fibroblast: H6076 | 0.869 | 0.816 | 0.803 | 0.777 | 0.715 | 0.685 | 0.675 | 0.675 | 0.689
100 µM, coculture fibroblast: H6231 | 0.898 | 0.841 | 0.811 | 0.774 | 0.718 | 0.689 | 0.648 | 0.646 | 0.623
100 µM, coculture fibroblast: HADF | 0.8728 | 0.8543 | 0.81544 | 0.792 | 0.767 | 0.7316 | 0.697 | 0.6684 | 0.62879
100 µM, coculture fibroblast: HCFa | 0.9005 | 0.866 | 0.833 | 0.7912 | 0.7396 | 0.697 | 0.67 | 0.646 | 0.604
100 µM, coculture fibroblast: HCPF | 0.861 | 0.793 | 0.771 | 0.759 | 0.715 | 0.677 | 0.66 | 0.6389 | 0.6225
100 µM, coculture fibroblast: HHSteC | 0.898 | 0.8875 | 0.847 | 0.827 | 0.777 | 0.7419 | 0.6979 | 0.671 | 0.624
100 µM, coculture fibroblast: HMF | 0.847 | 0.808 | 0.792 | 0.768 | 0.733 | 0.696 | 0.667 | 0.665 | 0.64
100 µM, coculture fibroblast: HPFa | 0.932 | 0.931 | 0.9025 | 0.8592 | 0.826 | 0.781 | 0.719 | 0.693 | 0.652
100 µM, coculture fibroblast: HUF | 0.846 | 0.79 | 0.781 | 0.724 | 0.668 | 0.648 | 0.604 | 0.591 | 0.576
100 µM, coculture fibroblast: Hs5 | 0.894 | 0.864 | 0.839 | 0.804 | 0.772 | 0.709 | 0.678 | 0.6507 | 0.631
100 µM, coculture fibroblast: Hs27A | 0.888 | 0.8711 | 0.8583 | 0.8611 | 0.82 | 0.758 | 0.75449 | 0.738 | 0.684
100 µM, coculture fibroblast: Hs343T | 0.906 | 0.848 | 0.837 | 0.825 | 0.753 | 0.7 | 0.659 | 0.6434 | 0.631
100 µM, coculture fibroblast: WS1 | 0.745 | 0.73 | 0.716 | 0.699 | 0.676 | 0.665 | 0.628 | 0.64 | 0.631

Values are relative to the signal before dosing, not to a vehicle control; the signal also falls without drug.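 Fibroblast labels denote human fibroblasts, mainly primary ones from uterus (C12385, HUF), lung (H6013), bone (Hs27A), adrenal (HADF) and skin (WS1), plus mammary HMF and breast cancer-associated Hs343T. Cancer cells are basal-like or mesenchymal-like triple-negative breast cancer lines. A hit is a response shift exceeding 3x replicate standard deviation. The tissue of the other fibroblasts is not given here.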
